In PMC7397857 one finds binding data, which are given here for three molecules.

Amino acid sequences for entries named in this document (tags omitted).
UniProt Q86US8: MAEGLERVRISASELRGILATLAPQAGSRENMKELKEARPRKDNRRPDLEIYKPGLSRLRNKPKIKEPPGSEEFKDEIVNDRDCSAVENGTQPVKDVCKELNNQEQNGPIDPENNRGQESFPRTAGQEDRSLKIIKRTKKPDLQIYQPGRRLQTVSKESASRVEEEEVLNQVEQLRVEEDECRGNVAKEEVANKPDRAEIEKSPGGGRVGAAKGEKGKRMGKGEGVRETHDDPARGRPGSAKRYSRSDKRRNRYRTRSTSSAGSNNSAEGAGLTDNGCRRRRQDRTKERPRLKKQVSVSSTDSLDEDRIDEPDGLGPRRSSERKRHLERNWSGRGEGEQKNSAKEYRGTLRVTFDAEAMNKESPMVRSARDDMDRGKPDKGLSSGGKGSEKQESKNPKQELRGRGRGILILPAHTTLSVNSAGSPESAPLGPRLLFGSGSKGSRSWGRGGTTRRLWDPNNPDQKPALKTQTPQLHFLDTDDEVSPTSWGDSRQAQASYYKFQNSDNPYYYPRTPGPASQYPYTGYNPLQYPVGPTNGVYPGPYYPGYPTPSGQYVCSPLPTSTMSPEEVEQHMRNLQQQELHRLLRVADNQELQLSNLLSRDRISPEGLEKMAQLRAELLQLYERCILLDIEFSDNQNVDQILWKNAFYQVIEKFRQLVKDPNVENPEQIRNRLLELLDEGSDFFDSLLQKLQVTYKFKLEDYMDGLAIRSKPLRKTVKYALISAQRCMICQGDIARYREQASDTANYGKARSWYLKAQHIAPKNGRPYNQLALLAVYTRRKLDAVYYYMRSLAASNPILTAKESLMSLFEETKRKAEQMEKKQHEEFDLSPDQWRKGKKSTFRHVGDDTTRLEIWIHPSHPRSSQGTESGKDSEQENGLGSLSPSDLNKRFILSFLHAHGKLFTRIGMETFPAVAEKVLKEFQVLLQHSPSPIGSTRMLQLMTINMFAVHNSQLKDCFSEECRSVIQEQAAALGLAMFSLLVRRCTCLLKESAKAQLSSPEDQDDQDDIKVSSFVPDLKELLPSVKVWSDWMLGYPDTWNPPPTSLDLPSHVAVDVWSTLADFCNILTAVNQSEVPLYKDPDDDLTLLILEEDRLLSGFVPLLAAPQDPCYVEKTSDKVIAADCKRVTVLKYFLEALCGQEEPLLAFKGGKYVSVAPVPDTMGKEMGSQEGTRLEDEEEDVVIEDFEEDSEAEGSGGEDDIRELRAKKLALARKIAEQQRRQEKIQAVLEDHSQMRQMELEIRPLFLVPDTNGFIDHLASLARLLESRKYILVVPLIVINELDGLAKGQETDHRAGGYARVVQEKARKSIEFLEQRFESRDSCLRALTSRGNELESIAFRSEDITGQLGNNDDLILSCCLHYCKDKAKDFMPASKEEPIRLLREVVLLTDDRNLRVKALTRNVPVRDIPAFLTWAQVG
UniProt A2RRP1: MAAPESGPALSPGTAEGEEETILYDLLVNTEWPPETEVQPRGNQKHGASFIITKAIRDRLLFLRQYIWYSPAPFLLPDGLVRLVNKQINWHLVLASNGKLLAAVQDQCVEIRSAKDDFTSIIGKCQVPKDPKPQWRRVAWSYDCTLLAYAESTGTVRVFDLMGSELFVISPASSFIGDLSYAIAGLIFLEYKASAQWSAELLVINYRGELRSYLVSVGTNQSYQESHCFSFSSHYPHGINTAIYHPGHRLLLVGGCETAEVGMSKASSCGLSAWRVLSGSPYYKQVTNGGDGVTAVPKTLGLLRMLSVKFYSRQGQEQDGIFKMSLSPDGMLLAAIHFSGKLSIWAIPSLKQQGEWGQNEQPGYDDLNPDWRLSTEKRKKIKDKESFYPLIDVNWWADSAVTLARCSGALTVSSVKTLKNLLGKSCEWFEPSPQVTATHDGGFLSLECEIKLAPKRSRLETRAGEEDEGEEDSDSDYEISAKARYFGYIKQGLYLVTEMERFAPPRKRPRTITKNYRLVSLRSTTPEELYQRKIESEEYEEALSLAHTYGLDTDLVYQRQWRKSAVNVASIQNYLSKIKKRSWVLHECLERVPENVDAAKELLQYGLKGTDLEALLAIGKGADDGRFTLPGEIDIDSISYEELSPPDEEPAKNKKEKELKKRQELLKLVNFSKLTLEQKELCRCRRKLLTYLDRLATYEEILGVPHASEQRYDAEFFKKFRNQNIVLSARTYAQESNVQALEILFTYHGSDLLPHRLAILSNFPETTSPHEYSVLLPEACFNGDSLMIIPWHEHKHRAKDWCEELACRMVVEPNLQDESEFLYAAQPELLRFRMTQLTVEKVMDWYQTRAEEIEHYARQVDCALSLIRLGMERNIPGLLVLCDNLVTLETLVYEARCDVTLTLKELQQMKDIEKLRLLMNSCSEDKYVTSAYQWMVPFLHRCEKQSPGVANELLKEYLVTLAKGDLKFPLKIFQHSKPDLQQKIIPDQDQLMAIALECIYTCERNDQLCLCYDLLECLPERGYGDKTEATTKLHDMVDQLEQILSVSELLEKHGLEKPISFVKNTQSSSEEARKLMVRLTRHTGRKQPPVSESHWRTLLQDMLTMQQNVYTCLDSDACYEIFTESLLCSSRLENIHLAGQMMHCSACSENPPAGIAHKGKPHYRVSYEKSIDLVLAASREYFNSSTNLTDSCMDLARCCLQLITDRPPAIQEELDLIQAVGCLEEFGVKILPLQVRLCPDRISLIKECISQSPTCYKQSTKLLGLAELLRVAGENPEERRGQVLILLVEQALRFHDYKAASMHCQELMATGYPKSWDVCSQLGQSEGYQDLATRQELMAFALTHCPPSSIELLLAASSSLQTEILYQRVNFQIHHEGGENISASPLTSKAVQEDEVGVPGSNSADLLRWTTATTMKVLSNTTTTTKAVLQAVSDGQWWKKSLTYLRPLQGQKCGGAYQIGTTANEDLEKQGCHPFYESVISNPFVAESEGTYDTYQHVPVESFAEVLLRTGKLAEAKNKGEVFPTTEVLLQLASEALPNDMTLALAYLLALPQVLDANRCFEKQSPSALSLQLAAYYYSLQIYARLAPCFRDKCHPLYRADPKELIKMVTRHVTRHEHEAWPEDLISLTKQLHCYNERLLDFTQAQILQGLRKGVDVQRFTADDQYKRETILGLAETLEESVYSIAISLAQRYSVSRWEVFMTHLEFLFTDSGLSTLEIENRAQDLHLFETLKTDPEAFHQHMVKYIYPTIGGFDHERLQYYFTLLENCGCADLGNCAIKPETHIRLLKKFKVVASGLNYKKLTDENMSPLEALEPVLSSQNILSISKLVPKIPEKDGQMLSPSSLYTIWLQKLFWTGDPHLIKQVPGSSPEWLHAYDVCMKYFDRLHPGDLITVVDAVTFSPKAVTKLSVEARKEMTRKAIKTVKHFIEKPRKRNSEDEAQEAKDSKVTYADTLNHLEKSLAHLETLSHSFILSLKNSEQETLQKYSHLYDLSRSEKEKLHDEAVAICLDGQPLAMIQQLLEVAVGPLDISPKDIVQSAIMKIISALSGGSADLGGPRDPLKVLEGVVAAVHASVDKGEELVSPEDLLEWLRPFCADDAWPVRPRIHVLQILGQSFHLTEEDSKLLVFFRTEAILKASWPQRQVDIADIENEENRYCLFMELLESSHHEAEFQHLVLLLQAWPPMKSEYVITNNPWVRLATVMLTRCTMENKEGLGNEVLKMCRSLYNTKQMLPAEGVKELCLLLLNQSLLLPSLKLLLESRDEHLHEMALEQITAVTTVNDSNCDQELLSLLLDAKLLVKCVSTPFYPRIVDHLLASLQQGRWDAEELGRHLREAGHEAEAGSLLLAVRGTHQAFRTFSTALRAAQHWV
UniProt P60468: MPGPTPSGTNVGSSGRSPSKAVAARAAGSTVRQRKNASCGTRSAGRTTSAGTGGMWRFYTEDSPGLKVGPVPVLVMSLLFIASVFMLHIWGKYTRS

Assay [1] concerns the target T1, Flag-tagged SMG7 (human) (UniProt Q92540).
T1 sequence: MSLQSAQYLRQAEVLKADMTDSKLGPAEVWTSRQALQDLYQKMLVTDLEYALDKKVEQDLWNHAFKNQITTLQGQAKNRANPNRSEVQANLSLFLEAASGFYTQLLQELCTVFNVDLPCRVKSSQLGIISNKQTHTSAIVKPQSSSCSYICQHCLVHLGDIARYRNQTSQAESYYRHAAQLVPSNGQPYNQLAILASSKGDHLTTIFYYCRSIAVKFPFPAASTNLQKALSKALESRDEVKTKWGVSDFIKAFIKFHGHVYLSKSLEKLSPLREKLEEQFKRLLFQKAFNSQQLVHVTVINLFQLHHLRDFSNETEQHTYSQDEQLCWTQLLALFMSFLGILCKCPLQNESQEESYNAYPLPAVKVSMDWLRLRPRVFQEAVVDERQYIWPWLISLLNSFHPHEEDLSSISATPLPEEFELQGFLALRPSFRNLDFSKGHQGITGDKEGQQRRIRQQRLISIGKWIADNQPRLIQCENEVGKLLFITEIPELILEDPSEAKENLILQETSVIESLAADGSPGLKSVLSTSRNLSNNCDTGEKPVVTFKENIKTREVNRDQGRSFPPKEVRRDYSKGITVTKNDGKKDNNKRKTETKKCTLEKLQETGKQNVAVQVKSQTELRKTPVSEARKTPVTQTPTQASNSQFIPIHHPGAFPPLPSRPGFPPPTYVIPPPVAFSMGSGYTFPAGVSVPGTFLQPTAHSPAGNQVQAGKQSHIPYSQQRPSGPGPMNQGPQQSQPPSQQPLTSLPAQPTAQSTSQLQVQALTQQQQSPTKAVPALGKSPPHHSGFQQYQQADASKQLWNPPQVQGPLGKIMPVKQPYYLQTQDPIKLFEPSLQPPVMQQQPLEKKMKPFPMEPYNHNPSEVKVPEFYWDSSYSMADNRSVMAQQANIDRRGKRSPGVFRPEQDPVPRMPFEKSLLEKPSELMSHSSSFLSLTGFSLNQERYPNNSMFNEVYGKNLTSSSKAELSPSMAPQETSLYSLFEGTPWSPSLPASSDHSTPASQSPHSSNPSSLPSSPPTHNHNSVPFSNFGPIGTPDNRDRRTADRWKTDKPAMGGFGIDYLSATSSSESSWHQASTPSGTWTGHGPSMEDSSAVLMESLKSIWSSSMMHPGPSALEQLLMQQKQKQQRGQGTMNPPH
Put plainly: co-IP; transiently expressed tagged NMD factor and endogenous NBAS, also in the absence of RNA.

In assay [2] the target is Flag-tagged SMG6 (human) (UniProt Q86US8). The assay is described as above.
Assay [3] concerns the target T2, Flag-tagged UPF1 (human) (UniProt Q92900).
T2 sequence: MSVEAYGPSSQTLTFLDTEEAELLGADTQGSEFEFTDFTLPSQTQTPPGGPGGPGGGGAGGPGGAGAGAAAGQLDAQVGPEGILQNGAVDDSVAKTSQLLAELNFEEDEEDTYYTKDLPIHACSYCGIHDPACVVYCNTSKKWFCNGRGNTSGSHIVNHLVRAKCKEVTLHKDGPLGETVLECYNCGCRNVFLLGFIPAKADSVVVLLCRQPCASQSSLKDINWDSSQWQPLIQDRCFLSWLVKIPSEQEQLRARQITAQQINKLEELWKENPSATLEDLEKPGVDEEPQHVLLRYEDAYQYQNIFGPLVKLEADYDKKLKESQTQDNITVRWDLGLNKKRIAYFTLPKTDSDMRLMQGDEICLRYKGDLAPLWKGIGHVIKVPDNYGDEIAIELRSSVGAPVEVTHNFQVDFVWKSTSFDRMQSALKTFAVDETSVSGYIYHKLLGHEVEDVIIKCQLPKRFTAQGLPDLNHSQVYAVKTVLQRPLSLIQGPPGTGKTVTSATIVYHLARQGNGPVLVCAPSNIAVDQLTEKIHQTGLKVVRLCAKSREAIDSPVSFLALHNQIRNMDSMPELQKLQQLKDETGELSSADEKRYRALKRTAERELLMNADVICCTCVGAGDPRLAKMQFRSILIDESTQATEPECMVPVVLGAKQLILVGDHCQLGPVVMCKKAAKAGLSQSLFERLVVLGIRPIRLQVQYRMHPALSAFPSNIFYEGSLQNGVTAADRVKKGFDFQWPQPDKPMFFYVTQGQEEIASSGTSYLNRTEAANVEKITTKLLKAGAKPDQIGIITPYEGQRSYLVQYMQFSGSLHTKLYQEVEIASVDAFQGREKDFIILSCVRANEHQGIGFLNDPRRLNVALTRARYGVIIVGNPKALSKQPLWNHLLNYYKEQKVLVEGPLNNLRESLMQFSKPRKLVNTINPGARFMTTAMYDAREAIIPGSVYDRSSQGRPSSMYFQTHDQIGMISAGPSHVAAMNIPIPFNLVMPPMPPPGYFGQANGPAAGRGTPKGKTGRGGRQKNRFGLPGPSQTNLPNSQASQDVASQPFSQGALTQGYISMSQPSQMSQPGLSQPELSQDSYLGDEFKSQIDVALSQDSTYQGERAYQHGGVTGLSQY
The description is as above.

Assay [4] concerns the target T3, full-length tagged RNA helicase DHX34 (UniProt Q14147).
T3 sequence: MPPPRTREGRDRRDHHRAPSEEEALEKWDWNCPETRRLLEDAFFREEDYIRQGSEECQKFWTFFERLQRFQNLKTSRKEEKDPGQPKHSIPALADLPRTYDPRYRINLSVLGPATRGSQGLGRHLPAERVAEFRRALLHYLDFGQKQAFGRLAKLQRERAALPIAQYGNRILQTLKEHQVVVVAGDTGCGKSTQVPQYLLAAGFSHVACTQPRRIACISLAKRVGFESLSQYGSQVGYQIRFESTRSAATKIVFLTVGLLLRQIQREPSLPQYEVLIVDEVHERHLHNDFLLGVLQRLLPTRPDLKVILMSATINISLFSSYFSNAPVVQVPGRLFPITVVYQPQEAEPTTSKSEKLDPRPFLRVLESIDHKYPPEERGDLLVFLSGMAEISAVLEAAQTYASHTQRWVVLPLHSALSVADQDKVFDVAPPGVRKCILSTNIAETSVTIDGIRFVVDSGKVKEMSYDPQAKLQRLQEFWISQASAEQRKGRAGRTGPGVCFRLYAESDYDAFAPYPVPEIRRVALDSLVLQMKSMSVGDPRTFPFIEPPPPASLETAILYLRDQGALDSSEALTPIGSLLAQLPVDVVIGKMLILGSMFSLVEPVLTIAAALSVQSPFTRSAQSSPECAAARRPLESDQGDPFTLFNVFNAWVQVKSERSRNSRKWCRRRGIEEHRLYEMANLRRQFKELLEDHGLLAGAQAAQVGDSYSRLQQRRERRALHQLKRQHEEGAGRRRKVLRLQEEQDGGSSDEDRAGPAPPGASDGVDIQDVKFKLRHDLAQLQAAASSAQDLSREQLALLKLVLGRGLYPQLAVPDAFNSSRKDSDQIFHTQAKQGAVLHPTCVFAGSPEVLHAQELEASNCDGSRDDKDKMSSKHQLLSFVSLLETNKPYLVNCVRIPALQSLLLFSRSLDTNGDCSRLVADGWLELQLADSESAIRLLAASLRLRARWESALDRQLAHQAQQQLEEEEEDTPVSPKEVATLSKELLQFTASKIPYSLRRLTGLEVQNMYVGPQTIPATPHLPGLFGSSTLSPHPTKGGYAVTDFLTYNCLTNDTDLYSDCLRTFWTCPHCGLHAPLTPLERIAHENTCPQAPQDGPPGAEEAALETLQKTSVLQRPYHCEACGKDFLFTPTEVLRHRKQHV
The description is as above.

Assay [5] addresses GFP-NBAS (human), A2RRP1. Put plainly: FRET or BRET; FRET-FLIM; GFP-NBAS donor and mCherry-UPF1 acceptor in fixed HeLa cells 48 h after transfection; donor fluorescence lifetime. Particulars: remark: other sources report otherwise. (In general: In BRET a luciferase serves as donor, and the signal depends on an acceptor being close.)
For assay [6], the target named is GFP-NBAS (human), A2RRP1. Put plainly: fluorescence cross-correlation spectroscopy (FCCS); live HeLa cells transiently expressing GFP-NBAS and mCherry-UPF1 or mCherry; weakly expressing cells. Particulars: remark: other sources report otherwise.
In assay [7] the target is SEC61B (human (endogenous in HeLa)) (UniProt P60468). Put plainly: proximity ligation; Duolink PLA on fixed, permeabilised cells with primary antibodies to the two proteins.

Results are given in words; binding and its absence hold for the method and conditions named. For some of these results: In cells and extracts the contact can be indirect. Some entries that bind do so weakly or less than the wild type. For some of these results: Where a sequence is shown, tags or fusion partners need not be part of it.

“NBAS (neuroblastoma amplified sequence), endogenous (from UniProt A2RRP1 1-2371)”: the binding result in assay [1], in assay [2], in assay [3] and in assay [4] was “binds” throughout.

B1: mCherry-UPF1, Q92900 1-1129 (protein)
chain: MSVEAYGPSSQTLTFLDTEEAELLGADTQGSEFEFTDFTLPSQTQTPPGGPGGPGGGGAGGPGGAGAGAAAGQLDAQVGPEGILQNGAVDDSVAKTSQLLAELNFEEDEEDTYYTKDLPIHACSYCGIHDPACVVYCNTSKKWFCNGRGNTSGSHIVNHLVRAKCKEVTLHKDGPLGETVLECYNCGCRNVFLLGFIPAKADSVVVLLCRQPCASQSSLKDINWDSSQWQPLIQDRCFLSWLVKIPSEQEQLRARQITAQQINKLEELWKENPSATLEDLEKPGVDEEPQHVLLRYEDAYQYQNIFGPLVKLEADYDKKLKESQTQDNITVRWDLGLNKKRIAYFTLPKTDSGNEDLVIIWLRDMRLMQGDEICLRYKGDLAPLWKGIGHVIKVPDNYGDEIAIELRSSVGAPVEVTHNFQVDFVWKSTSFDRMQSALKTFAVDETSVSGYIYHKLLGHEVEDVIIKCQLPKRFTAQGLPDLNHSQVYAVKTVLQRPLSLIQGPPGTGKTVTSATIVYHLARQGNGPVLVCAPSNIAVDQLTEKIHQTGLKVVRLCAKSREAIDSPVSFLALHNQIRNMDSMPELQKLQQLKDETGELSSADEKRYRALKRTAERELLMNADVICCTCVGAGDPRLAKMQFRSILIDESTQATEPECMVPVVLGAKQLILVGDHCQLGPVVMCKKAAKAGLSQSLFERLVVLGIRPIRLQVQYRMHPALSAFPSNIFYEGSLQNGVTAADRVKKGFDFQWPQPDKPMFFYVTQGQEEIASSGTSYLNRTEAANVEKITTKLLKAGAKPDQIGIITPYEGQRSYLVQYMQFSGSLHTKLYQEVEIASVDAFQGREKDFIILSCVRANEHQGIGFLNDPRRLNVALTRARYGVIIVGNPKALSKQPLWNHLLNYYKEQKVLVEGPLNNLRESLMQFSKPRKLVNTINPGARFMTTAMYDAREAIIPGSVYDRSSQGRPSSMYFQTHDQIGMISAGPSHVAAMNIPIPFNLVMPPMPPPGYFGQANGPAAGRGTPKGKTGRGGRQKNRFGLPGPSQTNLPNSQASQDVASQPFSQGALTQGYISMSQPSQMSQPGLSQPELSQDSYLGDEFKSQIDVALSQDSTYQGERAYQHGGVTGLSQY
For B1, the binding entry in assay [5] and in assay [6] was “binds” in each case.

B2: UPF1, endogenous (protein, UniProt Q92900 1-1129)
chain: MSVEAYGPSSQTLTFLDTEEAELLGADTQGSEFEFTDFTLPSQTQTPPGGPGGPGGGGAGGPGGAGAGAAAGQLDAQVGPEGILQNGAVDDSVAKTSQLLAELNFEEDEEDTYYTKDLPIHACSYCGIHDPACVVYCNTSKKWFCNGRGNTSGSHIVNHLVRAKCKEVTLHKDGPLGETVLECYNCGCRNVFLLGFIPAKADSVVVLLCRQPCASQSSLKDINWDSSQWQPLIQDRCFLSWLVKIPSEQEQLRARQITAQQINKLEELWKENPSATLEDLEKPGVDEEPQHVLLRYEDAYQYQNIFGPLVKLEADYDKKLKESQTQDNITVRWDLGLNKKRIAYFTLPKTDSGNEDLVIIWLRDMRLMQGDEICLRYKGDLAPLWKGIGHVIKVPDNYGDEIAIELRSSVGAPVEVTHNFQVDFVWKSTSFDRMQSALKTFAVDETSVSGYIYHKLLGHEVEDVIIKCQLPKRFTAQGLPDLNHSQVYAVKTVLQRPLSLIQGPPGTGKTVTSATIVYHLARQGNGPVLVCAPSNIAVDQLTEKIHQTGLKVVRLCAKSREAIDSPVSFLALHNQIRNMDSMPELQKLQQLKDETGELSSADEKRYRALKRTAERELLMNADVICCTCVGAGDPRLAKMQFRSILIDESTQATEPECMVPVVLGAKQLILVGDHCQLGPVVMCKKAAKAGLSQSLFERLVVLGIRPIRLQVQYRMHPALSAFPSNIFYEGSLQNGVTAADRVKKGFDFQWPQPDKPMFFYVTQGQEEIASSGTSYLNRTEAANVEKITTKLLKAGAKPDQIGIITPYEGQRSYLVQYMQFSGSLHTKLYQEVEIASVDAFQGREKDFIILSCVRANEHQGIGFLNDPRRLNVALTRARYGVIIVGNPKALSKQPLWNHLLNYYKEQKVLVEGPLNNLRESLMQFSKPRKLVNTINPGARFMTTAMYDAREAIIPGSVYDRSSQGRPSSMYFQTHDQIGMISAGPSHVAAMNIPIPFNLVMPPMPPPGYFGQANGPAAGRGTPKGKTGRGGRQKNRFGLPGPSQTNLPNSQASQDVASQPFSQGALTQGYISMSQPSQMSQPGLSQPELSQDSYLGDEFKSQIDVALSQDSTYQGERAYQHGGVTGLSQY
As for B2, the binding entry in assay [7] is given as “binds”.
